Reference: publication PMC4877375

T1: Trs120p-TAP (yeast (endogenous in the yeast strain)) (UniProt Q04183)
T1 sequence: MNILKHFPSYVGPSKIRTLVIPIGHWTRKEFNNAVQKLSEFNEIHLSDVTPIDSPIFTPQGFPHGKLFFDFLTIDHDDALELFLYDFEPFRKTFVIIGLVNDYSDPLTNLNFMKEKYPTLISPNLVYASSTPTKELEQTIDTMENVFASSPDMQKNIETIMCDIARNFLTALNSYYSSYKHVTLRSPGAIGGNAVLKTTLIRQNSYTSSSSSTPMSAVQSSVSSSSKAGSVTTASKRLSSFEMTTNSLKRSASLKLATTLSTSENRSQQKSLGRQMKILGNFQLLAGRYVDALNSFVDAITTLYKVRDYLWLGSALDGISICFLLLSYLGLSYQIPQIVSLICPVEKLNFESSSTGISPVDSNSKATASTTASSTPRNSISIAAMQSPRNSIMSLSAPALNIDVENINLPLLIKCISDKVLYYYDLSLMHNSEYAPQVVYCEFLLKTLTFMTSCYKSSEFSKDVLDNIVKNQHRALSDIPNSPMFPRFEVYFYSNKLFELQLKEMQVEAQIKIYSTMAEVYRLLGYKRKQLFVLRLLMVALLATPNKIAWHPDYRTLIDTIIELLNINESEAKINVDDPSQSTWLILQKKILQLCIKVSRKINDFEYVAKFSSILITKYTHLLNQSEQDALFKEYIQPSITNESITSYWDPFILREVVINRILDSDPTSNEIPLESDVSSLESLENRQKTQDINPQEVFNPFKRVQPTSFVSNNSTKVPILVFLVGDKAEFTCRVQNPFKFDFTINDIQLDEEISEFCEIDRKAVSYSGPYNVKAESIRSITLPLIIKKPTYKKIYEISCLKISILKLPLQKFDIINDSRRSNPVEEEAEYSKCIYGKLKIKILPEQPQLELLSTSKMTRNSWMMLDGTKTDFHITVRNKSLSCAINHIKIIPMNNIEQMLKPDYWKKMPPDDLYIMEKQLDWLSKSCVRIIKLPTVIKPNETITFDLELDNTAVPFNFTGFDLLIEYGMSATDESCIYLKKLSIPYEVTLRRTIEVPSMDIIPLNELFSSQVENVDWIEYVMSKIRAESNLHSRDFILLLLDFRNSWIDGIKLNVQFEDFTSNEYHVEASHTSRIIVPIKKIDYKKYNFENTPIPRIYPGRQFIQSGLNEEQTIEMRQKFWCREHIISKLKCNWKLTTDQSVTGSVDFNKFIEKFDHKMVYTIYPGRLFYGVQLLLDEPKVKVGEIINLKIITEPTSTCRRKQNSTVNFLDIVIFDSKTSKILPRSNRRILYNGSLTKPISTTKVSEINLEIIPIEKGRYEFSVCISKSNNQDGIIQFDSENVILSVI

B1: LSB3 (protein, UniProt P43603 1-459)
chain: MGINNPIPRSLKSETKKAAKILASFVKPNQVFGADQVIPPDVLKRAKGLAIITILKAGFLFSGRAGSGVIVARLKDGTWSAPSAIAMAGAGAGGMVGIELTDFVFILNTQDAVKSFSEFGTITLGGNVSVSAGPLGRSAEAAASASAGGVAAVFAYSKSKGLFAGVSVEGSAIIERREANRKFYGDNCTAKMILSGRIRPPPAVDPLFRVLESRAFNYRPSNGGRGSFDDDEDDYYDDDDYYNDIPSSFSSTDASSTRPNTRSTRRRAQSGSRYTFDDDDDDDDYGTGYSRNSRLAPTNSGGSGGKLDDPSGASSYYASHRRSGTAQSRARSSRNRWADDEYDDYDDDYESGYRRGNGRDRTKDREVDDLSNRFSKSRISSASTPQTSQGRFTAPTSPSTSSPKAVALYSFAGEESGDLPFRKGDVITILKKSDSQNDWWTGRVNGREGIFPANYVELV
B2: SKN1 (protein, UniProt P33336 1-771)
chain: MSVRNLTNNRHSNSENSVSGSENSFYSSNEQSRQSSSLEPADGQNVRVSGNPFLGSEEFDEDYNSPSGDDERRGANEYSSSSSINYNNDPNSDTSLLANEKNSPERNGQRMSDYKGYYAKTNLTSANNLNNHNNNNYKNIISSSNDNSFASHLQPPDRNLPSHPSSNNMSSFSNNSLIKSPPPFDRYPLVGTRHISAAQSQSQNLINEKKRANMTGSSSSAHDSSLSSTNLYMGEQDFSPFGGYPASFFPLTLDEKEDDDYIHNPNVEEEAKLDRRRFVDDFKHMDRRSFLGLLGILFLFMAGIFIFIVLPAITFSGVVYHHEHVHAANSAGSSSSNTTSKSLTEYQYPQLAAIRTTLVDPDTPDSAKTRVAKDGSKWQLVFSDEFNAEGRTFYDGDDQFWTAPDIHYDATKDLEWYSPDAVTTTNGTLTLRMDAFRNHDLYYRSGMVQSWNKLCFTEGALEVSANLPNYGRVTGLWPGMWTMGNLGRPGYLASTQGVWPYSYEACDAGITPNQSSPDGISYLPGQKLSVCTCDNEDHPNQGVGRGAPEIDILEGEADTILGVGVASQSLQIAPFDIWYMPDYDFIEVYNFTTTTMNTYAGGPFQQAVSAISTLNVTWYEFGEEAGYFQKYAIEYLNDDDNGYIRWFVGENPTFTLYATSLHPSGNIDWRRISKEPMSAILNLGISNNWAYIDWQYIFFPVTMSIDYVRLYQPKGSTSITCDPEDYPTYDYIQSHLNAYYNANLTDWEQAGYTFPKNILTGGCSSSKFSLS
B3: Trs65p (protein, UniProt P32893 1-560)
chain: MECFVPLRCDLDGSNIEQLRQSHLSRKFIIFDEQLNLWLWFQGNSQENKRFVLQNMIILINEAQVTRTSTIDDYFTQVENNENLWRLKNDCCSKILFKSNVVMNNGYNNQIKFVFEYKSVDANFNNQDSLQDPQAKYTLDKYSSEEILPSFEPVYSWSSAATKSSKNTNNHLEKNNRATHRVSSKNSEVHEADVSRNPNTFTLKLQYPIFSLLNMRLRNISLKSEHCILSSLDFQTSKASEQLTKKFIYPQEHNSFLKLNFQEISYKLIDGTSQIELDPICPLKVPLTAFSYDSISATFKLVLLPKSTQPHRVKITLAYELELHPNLKLPVRTSWETEVTLKRSMPISSTSSQYSSNNNNTNHSASFNGAANNVNSGGLANLRLGGVSSSRFSLGAASTTSLVNSKLSNVKFKFINSNIKVIKGEKFTMRLQIINSSSSPLDLVVYYNNTINPIPSANNVRNSNGINNCGMNNGTIPNSPLTLENQYQLHNKYRKIAEGIILLSNDYKIPVVPPRETYFADLRFIGIMSGYYGTLSGLKVLDLNTNELIEVGNGASVLIQ
B4: KRE6 (protein, UniProt P32486 1-720)
chain: MPLRNLTETHNFSSTNLDTDGTGDDHDGAPLSSSPSFGQQNDNSTNDNAGLTNPFMGSDEESNARDGESLSSSVHYQPQGSDSSLLHDNSRLDLSQNKGVSDYKGYYSRNNSRAVSTANDNSFLQPPHRAIASSPSLNSNLSKNDILSPPEFDRYPLVGSRVTSMTQLNHHGRSPTSSPGNESSASFSSNPFLGEQDFSPFGGYPASSFPLMIDEKEEDDYLHNPDPEEEARLDRRRFIDDFKYMDKRSASGLAGVLLLFLAAIFIFIVLPALTFTGAIDHESNTEEVTYLTQYQYPQLSAIRTSLVDPDTPDTAKTREAMDGSKWELVFSDEFNAEGRTFYDGDDPYWTAPDVHYDATKDLEWYSPDASTTVNGTLQLRMDAFKNHGLYYRSGMLQSWNKVCFTQGALEISANLPNYGRVSGLWPGLWTMGNLGRPGYLASTQGVWPYSYESCDAGITPNQSSPDGISYLPGQKLSICTCDGEDHPNQGVGRGAPEIDVLEGETDTKIGVGIASQSLQIAPFDIWYMPDYDFIEVYNFTTTTMNTYAGGPFQQAVSAVSTLNVTWYEFGEYGGYFQKYAIEYLNDDDNGYIRWFVGDTPTYTIHAKALHPDGNIGWRRISKEPMSIILNLGISNNWAYIDWQYIFFPVVMSIDYVRIYQPSNAISVTCDPSDYPTYDYIQSHLNAFQNANLTTWEDAGYTFPKNILTGKCTSSKFKLSS
B5: Gcs1p (protein, UniProt P35197 1-352)
chain: MSDWKVDPDTRRRLLQLQKIGANKKCMDCGAPNPQWATPKFGAFICLECAGIHRGLGVHISFVRSITMDQFKPEELLRMEKGGNEPLTEWFKSHNIDLSLPQKVKYDNPVAEDYKEKLTCLCEDRVFEEREHLDFDASKLSATSQTAASATPGVAQSREGTPLENRRSATPANSSNGANFQKEKNEAYFAELGKKNQSRPDHLPPSQGGKYQGFGSTPAKPPQERSAGSSNTLSLENFQADPLGTLSRGWGLFSSAVTKSFEDVNETVIKPHVQQWQSGELSEETKRAAAQFGQKFQETSSYGFQAFSNFTKNFNGNAEDSSTAGNTTHTEYQKIDNNDKKNEQDEDKWDDF
B6: PIK1 (protein, UniProt P39104 1-1066)
chain: MHKASSSKKSFDDTIELKKNEQLLKLINSSEFTLHNCVELLCKHSENIGIHYYLCQKLATFPHSELQFYIPQLVQVLVTMETESMALEDLLLRLRAENPHFALLTFWQLQALLTDLSTDPASYGFQVARRVLNNLQTNLFNTSSGSDKNVKIHENVAPALVLSSMIMSAIAFPQLSEVTKPLVESQGRRQKAFVFKLARSAMKDFTKNMTLKNTLLNKKTSRSKRVSSNRSSTPTSPIDLIDPIKTKEDASFRKSRHSEVKLDFDIVDDIGNQVFEERISSSIKLPKRKPKYLDNSYVHRTYDGKNINRDGSISNTAKALDGNKGDYISPKGRNDENNEIGNNEDETGGETEEDADALNSDHFTSSMPDLHNIQPRTSSASSASLEGTPKLNRTNSQPLSRQAFKNSKKANSSLSQEIDLSQLSTTSKIKMLKANYFRCETQFAIALETISQRLARVPTEARLSALRAELFLLNRDLPAEVDIPTLLPPNKKGKLHKLVTITANEAQVLNSAEKVPYLLLIEYLRDEFDFDPTSETNERLLKKISGNQGGLIFDLNYMNRKENNENRNESTLTSNNTRSSVYDSNSFNNGASRNEGLSSTSRSDSASTAHVRTEVNKEEDLGDMSMVKVRNRTDDEAYRNALVIQSAANVPILPDDSQDRSPELNFGSNLDEVLIENGINSKNIHSQTDALADQMRVSAVMLAQLDKSPQQLSESTKQIRAQIISSMKEVQDKFGYHDLEALHGMAGERKLENDLMTGGIDTSYLGEDWATKKERIRKTSEYGHFENWDLCSVIAKTGDDLRQEAFAYQMIQAMANIWVKEKVDVWVKRMKILITSANTGLVETITNAMSVHSIKKALTKKMIEDAELDDKGGIASLNDHFLRAFGNPNGFKYRRAQDNFASSLAAYSVICYLLQVKDRHNGNIMIDNEGHVSHIDFGFMLSNSPGSVGFEAAPFKLTYEYIELLGGVEGEAFKKFVELTKSSFKALRKYADQIVSMCEIMQKDNMQPCFDAGEQTSVQLRQRFQLDLSEKEVDDFVENFLIGKSLGSIYTRIYDQFQLITQGIYS

Target: T1, Trs120p-TAP (yeast (endogenous in the yeast strain))
Experiment: affinity purification with mass spectrometry; Trs120p-TAP purified from yeast lysate (1% CHAPS, 100 mM NaCl) on IgG beads, TEV elution, calmodulin beads, EGTA elution; gel bands or total eluate analysed by MS/MS

Binder | binding
B1 | binds
B2 | binds
B3 | binds
B4 | binds
B5 | binds
B6 | binds

These are yes or no findings as the source states them, for the method shown. Binding seen in cells or lysates may run through a third protein. Here binding means that the protein was enriched with, or labelled near, the bait; the list need not be complete.
